{"source": "paper PMC12310822", "biological_target": "MtHAC-1(126-190), bZIP DNA-binding domain (Myceliophthora thermophila) (UniProt G2QME7)", "test": "EMSA", "conditions": "100 ng probe, 0-0.8 ug protein with 100 ng probe, 25 C, 30 min, binding buffer (composition and pH not given; cites earlier work), recombinant protein, residues 126-190, protein details: N-terminal Strep II, C-terminal His (pET-51b), probe letters rebuilt from the primers and the genome", "key": {"[1]": {"conditions": "high affinity, shift from 0.1 ug protein"}}, "note": "No signal at the amounts used counts as a negative. The exact form of at least one protein or probe is not confirmed. Weaker means in comparison with the reference protein, sequence or condition of that experiment.", "data": [{"sequence": "GACCGTCCTGGAATCTTCGAGGCTGGTCGGATCTGGCATGGCGCTCACACCGCTGCCGTTGCTGCGATGGAGAGTTGTATTGTCATGGGTGTGGCCCGGAGCGACAACCCAACCCGGTTCTGCGTCGGAGGGTCCTCCGTCCATGGACAAAATGGGTAGGCTAGACGACGCCAACCCCTCAGGAACCCGGAACTCGGGCCCTTCAGAATCCACTCTCAGCGGTTAGCCCCGCTGACGAACCCCTTAATCCCGGCCTGTTCGCCACGTGAGACTTTAGCCTGAATACTGCGTGCTACGATTCTGTTGCGGCTTGGCGCCCGAGACTCCAGCGGTGCAAGCCATCGAGAAGAA (double strand) [xyn1-P2]", "values": [{"measurement": "binding result", "setting": "[1]", "result": "binds"}]}, {"sequence": "ACAGACGGATTGATGCCATGCGTGATCCGAAAGCAAGCGCGGGAAGAGCCATGCTAAATATGGCGCCTCAACGCGTAATCCCGCTCGCCTAAGGTATTTGTATCGTAGCAGCGGCGCCTGCCACGACTTGGAAGATACGGTTGAAATCGGGGGGTGGGTGCCAGCCAATGTGGTATCTCTGTCTCTCTTGTGTTTTCTCCAGGTTTCCTGGCTTATCCACTTCTGAAAAGGTTGATGTCTTCTTCTTGGATCGCTGTGATCCTGAATCTATGGGAAGTTGAAGGAGACTCGAATGCGGCCGTAAATAATTACCAACGAGACAGGATGGTTAATACGGGCTGGTTAACCCAG (double strand) [xyn1-P3]", "values": [{"measurement": "binding result", "setting": "no retardation up to 0.8 ug protein", "result": "no binding"}]}, {"sequence": "ACTTGGCGAACGGAGATTTCCAGGACGAAAGTCGGAACATCTCCATCCGCGGCCAACCTGAACACTTTTGTTCGTTTCCGGACCATCGACCCACGAAAACAGTGCGGTTGCTGGCACAGTCAGTACTCACAATGGCGATGGTCCAGCCCGTTCCCGCCCGATGCCCACTTGCAGCGCAACTCTCCTTCGTTCGGCGGCCCGGCGGTGTCTGGCCTATTAGTACGATTTTGGATACCGGCTTGGTCGCCGCCGCGGTTTTTCTTGGCCGATACGGGAATCTCGGTGGTCCCAACTCCACCTGGGCACGCTCTGGTGCCAACATGGAACTTCGGGATGCCGCTCCGGGCACAG (double strand) [egl2-P2]", "values": [{"measurement": "binding result", "setting": "weak binding", "result": "binds more weakly"}]}, {"sequence": "GGGGTAAGGTCAGTAGCAGGCATTAGATTTAGGGAGATGCGAGAATAGCATTGACAGACACCAAAGCGCTGGAAGCTGATCTGCGCGGATGTGGGCGAACGGGTGCCACAGTCAACTCACTGCACGGAGGATGAAGCACCAGCAGCGCATGTCGGGGTTAAGGGAAGGGGAAGGGGGGTGAAGGGGGGTGAAGGAGGGGGAAGGGGGGAGGGGTGTCTGGATGGACGAGGGACAGCGGACCGGCCGGCAAGGGGGGGCGCGGGAGAAGGAGAACGTGGAGGGCAGGGAAGAGGGAACCATCAACGTACGGGATACGGGGTCGGATGGCAAGAGAGCGCTTGGCCAGTCCTC (double strand) [xyr1-P2]", "values": [{"measurement": "binding result", "setting": "[1]", "result": "binds"}]}, {"sequence": "GTGGGAAAATCTTCTTGCGCGAGAGATTAAAGAGGCTAGGAAGCTGGGGTGCATGCTGCAGGATCGGCATTGGGTCAGTGGGACGATGCAGCTGCGGGATGGCATAGCGGTCCGGCATGAGCCCGACGTTGCTGTAAGCAGCAATCGAGTGGCCAGAGGCATGCTGGGCACGCACCAAAGCCGGGCCGGACTGCCCGTTATTGATTGGGCCGGCCAAATGTCCCGTCGTGGCAGGTGGGCCAGCCGTTTCAACCCCGCAAAACCGCTGGTCAAGGTCGACATACCAAGATCTGTAAAGGGTCTTGTGATTGTCGGGTTCGGATCTCCTCATCCCGGATGTCACGCTGAGCG (double strand) [bgl1-P2]", "values": [{"measurement": "binding result", "setting": "weak binding", "result": "binds more weakly"}]}, {"sequence": "ATCATTCGATGGCTGACTGGCACACTCGTCTTGTTTGAGCATCGACGGCCCGCGGCCCGTCTCCCACGGTACGGAACCTCGTTGTACAGTACCTCTCGTAATGATACCCAACACCGGGGCCGAGCGCTGGGAGGGCGGCGTTCCCGAGAAGCCGGGAAGGCGGCTGGCCGGCTGACCTTTGTGACTTGGCGATGGATGCGGCCATGGAGAATGTCCGTCCGAAGCGACGCGACAATTAGCCTGGCTACCATCGATATAAATTGGGTGATTCCCAGCTCTTGATGGGCGTGTCTTCTGCCTGGCAGCCCTCGTCTTCAGATCAAGCAACTGTGTGCTGATCCTCTTCCGCC (double strand) [cbh1-P1]", "values": [{"measurement": "binding result", "setting": "weak binding", "result": "binds more weakly"}]}]}
